Data on 56 molecules can be found in PubChem BioAssay AID1487 (National Center for Advancing Translational Sciences (NCATS), 2009).

The nature of the experiment: qHTS Assay for Modulators of Lamin A Splicing. As to conditions: HeLa LMNA splicing GFP/RFP minigene ratio, 48 h. An outline of the steps:
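S3 HeLa stable clones carrying a lamin A-EGFP splicing minigene plus DsRed2 were seeded at 600 cells/well in Opti-MEM with 2% FBS, pin-dosed and incubated 48 h at 37°C. Acumen cytometry (488 nm) gave the GFP/RFP total-intensity ratio.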

[1] abbreviates: measured here: GFP splicing reporter channel.
[2] abbreviates: measured here: RFP viability control channel.

Each structure is given as a SMILES string. The list shows a part of the results. The main result of the screen is listed elsewhere. These columns were measured beside it and carry no call. Most of these compounds were active or inconclusive in the main read-out, so they are no random draw. The note in brackets gives the kind of curve behind each potency; many fits are weak.

Usually AC50 stands for the concentration at which the activity in the assay is half-maximal. Take `COc1ccc(CNC(=O)Cn2nc(C)c3nn(-c4ccc(Cl)cc4)c(C)c3c2=O)cc1`: the half-maximal activity concentration (AC50) under setting [1] is 0.316 µM [rising, full curve, poor fit] and the AC50 under setting [2] is 1 µM [rising, partial curve].

With `CCC1=[N+](CC(=O)c2ccc(C)cc2)CCn2c(C)ccc21`, under setting [2], the AC50 was 35.5 µM [rising, single point]. The same measure, in the same setting: with `O=c1c(Cl)cc(Cl)nn1-c1ccccc1` the figure was 3.98 µM [falling, partial curve, poor fit]. With `COc1ccc(/C=C/C(=O)OCC(=O)Nc2cccc(Oc3ccccc3)c2)c(OC)c1`, the AC50 runs as follows: under setting [1], 14.1 µM [rising, single point]; under setting [2], 25.1 µM [rising, single point].

With `CCSC(C)CC1C/C(=N/O)c2c(C)noc2C1` (stereo not drawn), the AC50 under setting [2] is 14.1 µM [rising, single point]. Take `COc1ccc(-c2c(C)[nH]n3c(=O)c(Cc4ccccc4)c(C)nc23)cc1`: the AC50 under setting [2] is 22.4 µM [rising, single point]. Take `O=C(Cn1nnc(-c2ccc(CN3CCOCC3)cc2)n1)N(c1ccccc1)c1ccccc1`: the AC50 is 5.62 µM [falling, partial curve, poor fit] under setting [1] and 35.5 µM [falling, single point] under setting [2]. In the case of `CCCCN(Cc1ccccc1)C(=O)C1CCN(Cc2sccc2C)CC1`, under setting [2], the AC50 is 35.5 µM [rising, single point].

Turning to `Cc1ccnc(NC(=O)COc2ccc3oc4c(c3c2)CCCC4)c1`, the half-maximal activity concentration (AC50) under setting [2] is 35.5 µM [rising, single point]. On to `CCOc1ccc(N2CC(c3nc(-c4cc(OC)c(OC)c(OC)c4)no3)CC2=O)cc1` (stereo not drawn), for which the AC50 under setting [1] is 35.5 µM [falling, partial curve, poor fit]. Turning to `COc1cccc(N2CC(NC(=O)c3ccc(S(=O)(=O)N4CCCC4)cc3)CC2=O)c1` (stereo not drawn), the AC50 under setting [2] was 0.0631 µM [rising, full curve, poor fit]. The same measure, in the same setting: with `Cc1ccc(N2CCN(C3=NC(=O)C(Cc4ccccc4)S3)CC2)cc1` (stereo not drawn) the figure was 11.2 µM [rising, partial curve, poor fit]. In the case of `CC(C)c1ccc(C(=O)CSc2n[nH]c(-c3ccncc3)n2)cc1`, the AC50 under setting [1] was 14.1 µM [rising, partial curve, poor fit] and the AC50 under setting [2] was 15.8 µM [rising, single point].

Regarding `O=C(COC(=O)C1CCCCC1)Nc1ccc(S(=O)(=O)N2CCOCC2)cc1`, under setting [2], the AC50 was 0.0112 µM [rising, partial curve, poor fit]. Consider `Cc1cc(-c2csc(NC(=O)c3ccc(S(=O)(=O)N(C)C)cc3)n2)c(C)n1-c1ccccc1`, for which the AC50 is, setting by setting: under setting [1], 3.16 µM [rising, full curve]; under setting [2], 3.16 µM [rising, full curve].

Regarding `O=C1C(CCC(O)c2ccc(F)cc2)C(c2ccc(O)cc2)N1c1ccc(F)cc1` (stereo not drawn), under setting [2], the AC50 is 0.00562 µM [falling, full curve, poor fit]. On to `CCOC(=O)c1cnc2c(c(C)nn2C)c1Oc1ccc(Cl)cc1`, for which the AC50 under setting [2] was 35.5 µM [rising, single point].

Take `CC(O)CNCCOc1cccc(Oc2ccccc2)c1` (stereo not drawn): under setting [1], the AC50 is 4.47 µM [rising, full curve, poor fit]. On the same count and under the same terms, with `Cc1cccc2c(=O)c(Br)c(C)n(Cc3ccccc3)c12` the figure was 0.316 µM [falling, partial curve]. Consider `COc1ccc(-n2ncc3c(N4CCN(c5cccc(C)c5)C(C)C4)ncnc32)cc1` (stereo not drawn), for which the AC50 runs as follows: under setting [1], 12.6 µM [falling, partial curve]; under setting [2], 35.5 µM [falling, single point].

With `CCOC(=O)CNc1c(-c2ccc(O)cc2)nc2ccc(Cl)cn12`, the AC50 under setting [2] was 0.355 µM [rising, partial curve, poor fit].

On to `CCn1c2ccccc2c2cc(NC(=O)c3cc(OC)c(OC)c(OC)c3)ccc21`, for which the AC50 under setting [1] is 1.26 µM [falling, full curve] and the AC50 under setting [2] was 1.26 µM [falling, full curve]. Take `Cc1ccc(CN=C(N)Nc2nc(C)cc(C)n2)cc1`: the AC50 under setting [1] was 0.794 µM [falling, full curve]. `O=C1C(=O)c2ccccc2C(O)=C1C1CCC(c2ccc(Cl)cc2)CC1` (stereo not drawn): the AC50 under setting [1] is 4.47 µM [falling, partial curve] and the AC50 under setting [2] is 6.31 µM [rising, partial curve, poor fit].

As to `Cc1c(C(=O)N2CCN(c3ccccc3)CC2)sc2ncnc(N3CCC(C)CC3)c12`, the AC50 is, setting by setting: under setting [1], 35.5 µM [rising, single point]; under setting [2], 35.5 µM [rising, single point]. As for `Cc1ccc(SCc2cn3c(C)csc3n2)cc1`, the AC50 reads like this: under setting [1], 31.6 µM [rising, single point]; under setting [2], 35.5 µM [rising, single point]. `O=C(NCc1ccc2c(c1)OCO2)c1ccc(COc2cccc(Cl)c2)o1`: the AC50 is 20 µM [rising, single point] under setting [1] and 35.5 µM [rising, single point] under setting [2]. `Clc1ccc2nc(-c3ccc(Br)s3)cn2c1`: the AC50 under setting [2] is 6.31 µM [rising, partial curve, poor fit]. The same measure, in the same setting: as for `COc1ccc(CN(C(=O)c2ccco2)c2ccc(C)cc2)cc1OC`, the figure is 20 µM [rising, single point]. Turning to `COc1ccccc1-n1c(=O)c(C#N)c(-c2ccc([N+](=O)[O-])cc2)c2cc(C(=O)c3cc(F)ccc3O)cnc21`, the AC50 by setting is: under setting [1], 31.6 µM [falling, single point]; under setting [2], 35.5 µM [falling, single point]. Turning to `Cc1ccccc1Cn1c(O)c(N=NC(=S)Nc2ccccc2F)c2ccccc21`, the AC50 under setting [2] was 0.316 µM [rising, full curve, poor fit]. On the same count and under the same terms, as for `Cc1ccc(C2/C(=C(\O)c3cnn(-c4ccccc4)c3C)C(=O)C(=O)N2CCN(C)C)o1` (stereo not drawn), the figure is 0.1 µM [falling, full curve].

Take `COc1ccc(OC)c(S(=O)(=O)N2CCC(C(=O)Nc3cccc(C(F)(F)F)c3)CC2)c1`: under setting [2], the AC50 was 31.6 µM [rising, single point]. Still for that read-out and setting: with `CCOc1ccc(CC(=O)Nc2ccc3nc(N4CCCCC4)cc(C)c3c2)cc1OCC` the figure was 31.6 µM [rising, single point]; with `Cc1ccc(N/N=C/c2c(O)cc(C)oc2=O)cc1`, 5.01 µM [falling, partial curve]. As for `O=C(Cc1c[nH]c2ccccc12)NCc1ccc(Cl)cc1Cl`, the AC50 under setting [1] is 10 µM [rising, single point] and the AC50 under setting [2] is 7.94 µM [rising, partial curve].

With `c1ccc(-c2nc(N3CCCCCC3)c3ccccc3n2)nc1`, the AC50 was 11.2 µM [rising, partial curve, poor fit] under setting [1] and 10 µM [rising, partial curve] under setting [2]. Consider `O=c1oc2ccc(Br)cc2cc1S(=O)(=O)c1ccc(F)cc1`, for which the AC50 under setting [1] was 35.5 µM [falling, single point]. As to `O=[N+]([O-])c1ccc2nc(-c3ccc(Cl)cc3)[nH]c2c1`, the AC50 is 10 µM [rising, partial curve, poor fit] under setting [1] and 22.4 µM [rising, single point] under setting [2]. With `O=C(/C=C/c1ccc(Br)cc1)N1CCN(c2cccc(C(F)(F)F)c2)CC1`, under setting [2], the AC50 is 6.31 µM [rising, partial curve]. As for `CN1C(=O)/C(=N\OC(=O)c2ccccc2Cl)c2ccccc21`, the AC50 under setting [1] is 0.562 µM [rising, partial curve, poor fit]. Regarding `CCOC(=O)c1c(NC(=O)CS(=O)(=O)c2cn(CC)c3ccccc23)sc2c1CCCC2`, the AC50 under setting [1] is 3.55 µM [rising, full curve, poor fit] and the AC50 under setting [2] was 11.2 µM [rising, partial curve].

As to `Cn1ccnc1Sc1nc(Nc2cccc(Cl)c2)nc(N2CCOCC2)n1`, the AC50 under setting [2] is 31.6 µM [rising, single point]. Still for that read-out and setting: as for `O=C(CC1Sc2ncnn2C1=O)Nc1ccc(Br)cc1` (stereo not drawn), the figure is 35.5 µM [rising, single point]. Regarding `Cc1ccc(-c2nnn(CCC(=O)NC3CCCC3)n2)cc1`, the AC50 is 11.2 µM [rising, partial curve] under setting [1] and 11.2 µM [rising, partial curve] under setting [2].

Turning to `O=C(CNS(=O)(=O)c1ccc(C(=O)N2CCCCC2)cc1)N1CCCCC1`, the AC50 under setting [2] is 0.708 µM [rising, full curve]. Take `CCCS(=O)(=O)N1CCN=C1SCc1cccc(C)c1`: the AC50 under setting [2] is 7.08 µM [falling, partial curve, poor fit]. Still for that read-out and setting: as for `COc1ccc(Cn2cccc(NC(=O)Nc3ccc(F)cc3)c2=O)cc1`, the figure is 3.98 µM [falling, partial curve].

`OC1CCN(C(=S)Nc2ccc(Nc3ccccc3)cc2)CC1`: under setting [2], the AC50 was 0.282 µM [rising, full curve, poor fit]. In the case of `CCN1/C(=C/C=C/C=C/c2sc3ccccc3[n+]2CC)Sc2ccccc21`, the AC50 is, setting by setting: under setting [1], 3.98 µM [rising, single point]; under setting [2], 4.47 µM [rising, full curve]. For `CC(/C=C/c1ccc(O)cc1)=N/O`, under setting [2], the AC50 is 10 µM [rising, partial curve].

Consider `COc1ccc(Oc2ccccc2C=O)cc1`, for which the concentration at half-maximal activity (AC50) by setting is: under setting [1], 35.5 µM [falling, single point]; under setting [2], 35.5 µM [falling, single point]. For the molecule `C/C(=C\C=C(C#N)C#N)c1cc(C#N)c(N)o1`, the AC50 under setting [2] was 14.1 µM [rising, partial curve, poor fit]. With `O=C(Oc1cc2oc(=O)cc(-c3ccccc3)c2cc1Cl)C1CCCCC1`, the AC50 by setting is: under setting [1], 10 µM [falling, partial curve, poor fit]; under setting [2], 7.94 µM [falling, partial curve, poor fit]. `CCCCOc1cc(CC2CNC(=O)N2)ccc1OC` (stereo not drawn): the AC50 by setting is: under setting [1], 25.1 µM [rising, single point]; under setting [2], 22.4 µM [rising, single point]. As for `O=C(CSc1nccc(=O)[nH]1)N1CCN(c2ccccc2)CC1`, the AC50 was 7.08 µM [falling, full curve, poor fit] under setting [1] and 3.98 µM [falling, full curve, poor fit] under setting [2].
